Measured values from US12215078B2, “Compositions and methods for protein labeling, modification, analysis, and targeted delivery” (University of Massachusetts, priority 2018, dated 2025).

Assay: Thiol-triggered declick of thiol/amine click products followed by NMR
Format: physicochemical
Conditions: in the presence of thiol
Method: Typically, product of thiol-A1 or amine-A1 click product was dissolved in single or mixed deuterated solvents (the volume of solvent depends on the solubility of A1 The volume of solvent depends on the solubility of click product). Then, thiol was added to the solution. The reaction was immediately followed by NMR.
Compound 17: 10 μmol (1 eq.) of 17 was dissolved in 500 μL of MeOH-d4 and 500 μL of 50 mM pH6.8 phosphate buffer. Then, 80 μmol (8 eq.) of thiol was added to the solution. Final concentration of 17 is 10 mM.
Compound 18: 10 μmol (1 eq.) of 18 was dissolved in 500 μL of MeOH-d4 and 500 μL of 50 mM pH7.4 phosphate buffer. Then, 80 μmol (8 eq.) of thiol was added to the solution. Final concentration of 18 is 10 mM.
Compound 19: 10 μmol (1 eq.) of 19 was dissolved in 500 μL of MeOH-d4 and 500 μL of 50 mM pH7.4 phosphate buffer. Then, 10 μmol (0.5 eq.) of thiol was added to the solution. Final concentration of 19 is 10 mM.
Compound 20: 10 μmol (1 eq.) of 20 was dissolved in 1000 μL of MeOH-d4 and 500 μL of 50 mM pH7.4 phosphate buffer. Then, 10 μmol (0.5 eq.) of thiol was added to the solution. Final concentration of 20 is 6.67 mM.
Compound 21: 10 μmol (1 eq.) of 21 was dissolved in 500 μL of MeOH-d4 and 500 μL of 50 mM pH7.4 phosphate buffer. Then, 10 μmol (0.5 eq.) of thiol was added to the solution. Final concentration of 21 is 10 mM.
Compound 22: 10 μmol (1 eq.) of 22 was dissolved in 500 μL of MeOH-d4 and 500 μL of 50 mM pH7.4 phosphate buffer. Then, 10 μmol (0.5 eq.) of thiol was added to the solution. Final concentration of 22 is 10 mM.
Compound 23: 10 μmol (1 eq.) of 23 was dissolved in 1000 μL of MeOH-d4 and 500 μL of 50 mM pH7.4 phosphate buffer. Then, 10 μmol (1 eq.) of thiol was added to the solution. Final concentration of 23 is 6.67 mM.
Compound 24: 10 μmol (1 eq.) of 24 was dissolved in 2000 μL of MeOH-d4 Then, 5 μmol (0.5 eq.) of thiol or amine was added to the solution. Final concentration of 24 is 5 mM.
Compound 25: 10 μmol (1 eq.) of 25 was dissolved in 1000 μL of MeOH-d4 and 500 μL of 50 mM pH7.4 phosphate buffer. Then, 5 μmol (0.5 eq.) of thiol was added to the solution. Final concentration of 25 is 6.67 mM.

Row | SMILES | thiol-triggered declick (reversibility) of click product
1 | C=C(C(=O)OC)C(SCC)c1ccc(Br)cc1 (stereo not drawn) [Compound 20] | can all be reversed; also recorded: triggerable
2 | C=C(C(=O)OC)C(NCc1ccccc1)c1ccc(OC)cc1 (stereo not drawn) [Compound 25] | can all be reversed; also recorded: triggerable
3 | C=C(CSCCOCCOC)C(=O)OC [Compound 17] | can all be reversed
4 | C=C(CSCCOCCOC)C(=O)NC [Compound 19] | can all be reversed; also recorded: triggerable
5 | C=C(CN(CC(=C)C(=O)OC)Cc1ccccc1)C(=O)OC [Compound 23] | can all be reversed
6 | CCSCC(=Cc1ccc(Br)cc1)C(=O)OC [Compound 21] | irreversible
7 | COC(=O)C(=Cc1ccc(OC)cc1)CN(CC(=Cc1ccc(OC)cc1)C(=O)OC)Cc1ccccc1 [Compound 24] | irreversible
8 | CCSCC(=Cc1ccc(OC)cc1)C(=O)OC [Compound 22] | irreversible
9 | C=C(CSCC)C(=O)OC [Compound 18] | can all be reversed; also recorded: triggerable

“Also recorded” adds a separate entry of the source.
